Measured values published in patent US20240402196A1 (Exact Sciences Corporation, priority 2018, published 2024).
Entries after “also recorded” stand apart in the source; their conditions may differ. At least one structure is not confirmed: it was looked up by name or label, or the drawing left a doubt.

Protein sequences, listed by entry. Tags and fused reporters are not part of them. Residues count along the entry.
UniProt P68871, 2-147 limits assumed: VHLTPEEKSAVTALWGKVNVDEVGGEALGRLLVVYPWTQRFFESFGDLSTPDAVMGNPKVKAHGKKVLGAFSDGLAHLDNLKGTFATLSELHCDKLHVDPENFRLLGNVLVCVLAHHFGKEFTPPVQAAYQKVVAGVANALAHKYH
UniProt P69905, 2-142 limits assumed: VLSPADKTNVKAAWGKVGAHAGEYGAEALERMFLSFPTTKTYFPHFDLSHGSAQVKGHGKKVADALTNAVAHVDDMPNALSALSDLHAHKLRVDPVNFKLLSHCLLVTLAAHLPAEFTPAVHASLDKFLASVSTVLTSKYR

How the values were obtained:
[1] = target: T1, hemoglobin in stool samples (Homo sapiens, UniProt P68871+P69905); test: 7-Day shipping simulation, hemoglobin % recovery by ELISA; parameters: from tissue; host or cells: stool samples; settings: concentrations and buffer pH 6.5 or 7.4 as in the 14th table
Experimental: (§1) To assess the stability of hemoglobin in stool samples, samples were exposed to simulated shipping stress conditions using a thermal cycler. […] An ELISA based detection method is used to determine the hemoglobin concentrations of samples before and after exposure to the shipping simulation. Hemoglobin stability is calculated as a % recovery of hemoglobin after the samples have been exposed to the shipping simulation.
To assess the stability of hemoglobin in stool samples beyond 3 days, a 7-Day shipping simulation was created.

hemoglobin (Hb) = target: T2, hemoglobin (Hb) (Homo sapiens, UniProt P68871+P69905); test: Appendix B: additives in Hb Collection Buffer, % Hb Recovery
T2 construct: To assess the stability of hemoglobin in stool samples, samples were exposed to simulated shipping stress conditions; from tissue; host or cells: stool samples

[2] = target: T1, hemoglobin in stool samples; test: 3-Day shipping simulation, hemoglobin % recovery by ELISA; parameters: from tissue; host or cells: stool samples;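 further: stool samples put through shipping stress in a thermal cycler, hemoglobin quantified by ELISA before and after, stability given as post-stress % of the pre-stress level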
[3] = target: T1, hemoglobin in stool samples; test: Accelerated shipping simulation (35C 16 hour challenge), hemoglobin % recovery by ELISA; parameters: from tissue; host or cells: stool samples;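 further: stool hemoglobin measured by ELISA before and after thermal-cycler shipping stress, stability given as percent of pre-stress hemoglobin recovered afterwards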
[4] = target: T1, hemoglobin in stool samples; test: 3-Day extreme temperature shipping simulation, hemoglobin % recovery by ELISA; parameters: from tissue; host or cells: stool samples
Experimental: as §1
As an additional challenge, a shipping simulation meant to represent a “worst case” scenario was created using extreme temperatures.

SMILES | Notes (Hb stability vs Hb Collection Buffer) [1] | Results (hemoglobin (Hb); Additive Concentration 1 uM, listed as Protoporphyrin IX Chromium) | Results (hemoglobin (Hb); Additive Concentration 5 uM) | Results (hemoglobin (Hb); Additive Concentration 10 uM, listed as Protoporphyrin IX Chromium) | Notes (Hb stability vs Hb Collection Buffer) ([2]; 3-Day and 7-Day Shipping Simulation, concentrations and pH as in the 18th table) | Hb stability (in words) ([2]; 3 and 7 day Shipping Simulations, concentrations of 0.5-10 µM, adjusted pH of 7.1) | Notes (Hb stability vs Hb Collection Buffer) ([2]; concentrations and buffer pH 6.5 or 7.4 as in the 13th table) | Hb stability (in words) [3] | Notes (Hb stability vs Hb Collection Buffer) ([3]; 35C 16 hour challenge, concentrations and pH as in the 19th table) | Hb stability compared to the Polymedco buffer (in words) ([4]; additive in Hb Collection Buffer) | Notes (Hb stability vs Hb Collection Buffer) ([4]; concentrations and buffer pH 6.5 or 7.4 as in the 15th table) | Results (hemoglobin (Hb); Additive Concentration 0.001 uM) | Results (hemoglobin (Hb); Additive Concentration 0.01 uM) | Results (hemoglobin (Hb); Additive Concentration 0.1 uM) | Results (hemoglobin (Hb); Additive Concentration 1 uM) | Results (hemoglobin (Hb); Additive Concentration 10 uM) | Results (hemoglobin (Hb); Additive Concentration 100 uM)
C=CC1=C(C)c2cc3[nH]c(cc4nc(cc5[nH]c(cc1n2)c(C)c5CCC(=O)O)C(CCC(=O)O)=C4C)c(C)c3C=C [Protoporphyrin IX Cr, Protoporphyrin IX Chromium] | Improved | Improvement in % Hb | Improvement in % Hb | Improvement in % Hb | Improved Hb | increased Hb stability | Improved | increased Hb stability | Improved Hb | improved Hb stability compared to the Polymedco buffer | Improved | – | – | – | – | – | –
C=CC1=C(C)c2cc3[nH]c(cc4nc(cc5[nH]c(cc1n2)c(C)c5CCC(=O)O)C(CCC(=O)O)=C4C)c(C)c3C=C [Protoporphyrin IX] | – | – | – | – | – | – | – | – | – | – | – | No Improvement | No Improvement | No Improvement | No Improvement; also recorded: Improvement in % Hb | No Improvement | No Improvement
